Laboratory results from patent US4782139A, “Selective chemical removal of a protein amino-terminal residue” (Eli Lilly and Company, priority 1986, dated 1988).
Part of at least one peptide drawing is inferred or uncertain, most often the ends. Residues, ends and D or L forms follow the SMILES beside them. No end group written: not given here.

Tests used:
[1] = Organic cleavage conditions: diketopiperazine formation and disappearance of starting peptide, reverse phase chromatography; type: physicochemical
Source text: […] A molecular sieves for one week. […] The rate of cleavage was monitored by appearance of methionyl-proline diketopiperazine formation and disappearance of starting peptide as measured in reverse phase chromatographic analysis. Chromatography was achieved using a 0.46×25 cm column of Ultrosphere C18 in 0.1% trifluoroacetic acid (TFA), using an acetonitrile gradient to effect elution. The reaction was stopped at each analysis time point by ten-fold dilution with 0.1% trifluoroacetic acid. The diketopiperazine peak was collected and its identity confirmed by amino acid and mass spectral analysis.

[2] = Aqueous cleavage conditions: diketopiperazine formation in buffered aqueous medium; type: physicochemical; conditions: 1.0 M Phosphate Buffer
[3] = 1 M Acetic Acid/DMF, 40° C., 2 h (Table 3)
[4] = 1 M Acetic Acid/DMF, 40° C., 24 h (Table 3)
[5] = DMF, 1 M HOAc, 40° C., 2 h (Table 7)
[6] = DMF, 1 M HOAc, 40° C., 24 h (Table 7)
[7] = DMSO, 1 M HOAc, 40° C., 2 h (Table 7)
[8] = DMSO, 1 M HOAc, 40° C., 24 h (Table 7)
[9] = DMSO, 1 M HOAc, 40° C., 48 h (Table 7)
[10] = pH 8.0, 40° C., 24 h (Table 12)
[11] = pH 8.0, 40° C., 48 h (Table 12)
[12] = pH 8.0, 55° C., 24 h (Table 12)
[13] = pH 8.0, 55° C., 48 h (Table 12)

Molecule | Methionine-Proline Diketopiperazine Formation [1, 3] [%] | Methionine-Proline Diketopiperazine Formation [1, 4] [%] | Methionine-Proline Diketopiperazine Formation [1, 5] [%] | Methionine-Proline Diketopiperazine Formation [1, 6] [%] | Methionine-Proline Diketopiperazine Formation [1, 7] [%] | Methionine-Proline Diketopiperazine Formation [1, 8] [%] | Methionine-Proline Diketopiperazine Formation [1, 9] [%] | Methionine-Proline Diketopiperazine Formation ([2]; pH 8.0, 40° C., 2 h (Table 12)) [%] | Methionine-Proline Diketopiperazine Formation [2, 10] [%] | Methionine-Proline Diketopiperazine Formation [2, 11] [%] | Methionine-Proline Diketopiperazine Formation ([2]; pH 8.0, 55° C., 2 h (Table 12)) [%] | Methionine-Proline Diketopiperazine Formation [2, 12] [%] | Methionine-Proline Diketopiperazine Formation [2, 13] [%] | Diketopiperazine Formation ([1]; 0.33 M HOAc/DMF, 40° C., 2 h) [%] | Diketopiperazine Formation ([1]; 0.33 M HOAc/DMF, 40° C., 4 h) [%] | Diketopiperazine Formation ([1]; 0.33 M HOAc/DMF, 40° C., 6 h) [%] | Diketopiperazine Formation ([1]; 0.33 M HOAc/DMF, 40° C., 24 h) [%] | Diketopiperazine Formation ([1]; 0.33 M HOAc/DMSO, 40° C., 2 h) [%] | Diketopiperazine Formation ([1]; 0.33 M HOAc/DMSO, 40° C., 4 h) [%] | Diketopiperazine Formation ([1]; 0.33 M HOAc/DMSO, 40° C., 6 h) [%] | also measured
CSCC[C@H](N)C(=O)N1CCC[C@H]1C(=O)N[C@@H](Cc1ccccc1)C(=O)NCC(N)=O [MPFG--NH2, Met--Pro--Phe--Gly--NH2] (H-MPFG-NH2) | 10 | 68 | 10 | 68 | 1 | 12 | 23 | 0 | 9 | 14 | 4 | 28 | 57 |  |  |  |  |  |  |  | Methionine-Proline Diketopiperazine Formation ([1]; 1 M Acetic Acid/DMF, 25° C., 2 h (Table 3)): 2%; Methionine-Proline Diketopiperazine Formation ([1]; 1 M Acetic Acid/DMF, 25° C., 24 h (Table 3)): 17%
CSCC[C@H](N)C(=O)N1CCC[C@H]1C(=O)N1CCC[C@H]1C(=O)NCC(N)=O [MPPG--NH2] (H-MPPG-NH2) | 20 | 95 | 20 | 95 | 5 | 43 | 65 | 0 | 12 | 19 | 6 | 30 | 53 |  |  |  |  |  |  |  | 
CSCC[C@H](N)C(=O)N1CCC[C@H]1C(=O)N[C@H](C(=O)NCC(N)=O)[C@@H](C)O [MPTG--NH2] (H-MPTG-NH2) | 22 | 88 | 22 | 88 | 3 | 11 | 38 | 2 | 18 | 26 | 8 | 47 | 75 |  |  |  |  |  |  |  | 
CC[C@H](C)[C@H](NC(=O)[C@@H](NC(=O)[C@@H]1CCCN1C(=O)[C@@H](N)Cc1ccccc1)[C@@H](C)O)C(N)=O [Phe--Pro--Thr--Ile--NH2, reference compound] (H-FPTI-NH2) |  |  |  |  |  |  |  |  |  |  |  |  |  | 15 | 26 | 37 | 88 | 4 | 7 | 11 | Diketopiperazine Formation ([1]; 0.33 M HOAc/DMSO, 40° C., 24 h): 27%; Diketopiperazine Formation ([1]; 0.33 M HOAc/NMP, 40° C., 2 h): 7%; Diketopiperazine Formation ([1]; 0.33 M HOAc/NMP, 40° C., 4 h): 12%; Diketopiperazine Formation ([1]; 0.33 M HOAc/NMP, 40° C., 6 h): 23%; Diketopiperazine Formation ([1]; 0.33 M HOAc/NMP, 40° C., 24 h): 78%; diketopiperazine formation, in words ([1]; compared with Met--Pro--Phe--Pro--Thr--Ile--NH2, organic cleavage conditions (Table 8)): slower diketopiperazine formation
MPFPTI-NH2 [Met--Pro--Phe--Pro--Thr--Ile--NH2] |  |  |  |  |  |  |  |  |  |  |  |  |  | 14 | 47 | 63 | 98 | 4 | 6 | 27 | Diketopiperazine Formation ([1]; 0.33 M HOAc/DMSO, 40° C., 24 h): 33%; Diketopiperazine Formation ([1]; 0.33 M HOAc/NMP, 40° C., 2 h): 17%; Diketopiperazine Formation ([1]; 0.33 M HOAc/NMP, 40° C., 4 h): 32%; Diketopiperazine Formation ([1]; 0.33 M HOAc/NMP, 40° C., 6 h): 47%; Diketopiperazine Formation ([1]; 0.33 M HOAc/NMP, 40° C., 24 h): 99%
